This is one part of the list.
Experiments:
Assay in all cases: log2 fold change, soluble protein after heating vs DMSO (PISA); higher = thermal stabilisation; K562 cells, 10 uM, 30 min; active = over 0.2 and 3.5 SD of the protein, either way, in both replicates (recomputed)
[1] = compound: CC1=C(C=C(C=C1)NC(=O)C2=CC(=CC=C2)C(C)(C)C#N)NC3=CC4=C(C=C3)N=CN(C4=O)C
In short: (§1)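 Aliquots of K562 cells (2×10^6 cells/mL) treated with 10 μM compound for 30 min were heated for 3 min over 48°C-58°C. After pooling and extraction in PBS with 0.5% NP-40 at 4°C, soluble protein from a 21,000xg, 90 min spin was quantified by TMTpro 16plex LC-MS/MS with channel sums equalised. Thermal stability is expressed against control samples, from duplicates, as a log2 fold change.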

By UniProt entry, the sequences of proteins in these tests, tags left out. Where a name states a change or a piece, a line headed by the entry shows the natural chain unless it says otherwise.
UniProt Q14974, whole entry, looked up: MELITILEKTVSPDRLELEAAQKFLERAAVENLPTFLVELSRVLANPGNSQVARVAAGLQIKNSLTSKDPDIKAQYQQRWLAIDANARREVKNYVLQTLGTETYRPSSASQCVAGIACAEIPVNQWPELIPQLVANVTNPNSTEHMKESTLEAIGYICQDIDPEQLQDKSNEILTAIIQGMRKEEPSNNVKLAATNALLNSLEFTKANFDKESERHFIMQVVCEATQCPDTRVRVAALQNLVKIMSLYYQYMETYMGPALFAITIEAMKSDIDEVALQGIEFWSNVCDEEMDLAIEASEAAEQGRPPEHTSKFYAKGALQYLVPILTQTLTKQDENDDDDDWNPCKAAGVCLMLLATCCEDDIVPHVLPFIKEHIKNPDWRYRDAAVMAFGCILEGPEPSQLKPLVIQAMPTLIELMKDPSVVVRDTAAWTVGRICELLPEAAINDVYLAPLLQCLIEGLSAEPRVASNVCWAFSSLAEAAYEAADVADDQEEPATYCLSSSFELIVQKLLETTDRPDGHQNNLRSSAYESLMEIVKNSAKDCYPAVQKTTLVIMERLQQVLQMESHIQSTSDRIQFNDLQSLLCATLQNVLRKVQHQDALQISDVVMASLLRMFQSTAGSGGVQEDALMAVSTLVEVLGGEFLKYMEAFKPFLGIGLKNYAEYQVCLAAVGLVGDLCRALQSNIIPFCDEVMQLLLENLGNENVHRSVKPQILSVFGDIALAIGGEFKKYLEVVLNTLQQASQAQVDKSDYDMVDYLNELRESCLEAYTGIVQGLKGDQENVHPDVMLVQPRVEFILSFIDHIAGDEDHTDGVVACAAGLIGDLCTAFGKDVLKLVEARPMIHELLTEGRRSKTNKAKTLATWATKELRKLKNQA
UniProt O15066: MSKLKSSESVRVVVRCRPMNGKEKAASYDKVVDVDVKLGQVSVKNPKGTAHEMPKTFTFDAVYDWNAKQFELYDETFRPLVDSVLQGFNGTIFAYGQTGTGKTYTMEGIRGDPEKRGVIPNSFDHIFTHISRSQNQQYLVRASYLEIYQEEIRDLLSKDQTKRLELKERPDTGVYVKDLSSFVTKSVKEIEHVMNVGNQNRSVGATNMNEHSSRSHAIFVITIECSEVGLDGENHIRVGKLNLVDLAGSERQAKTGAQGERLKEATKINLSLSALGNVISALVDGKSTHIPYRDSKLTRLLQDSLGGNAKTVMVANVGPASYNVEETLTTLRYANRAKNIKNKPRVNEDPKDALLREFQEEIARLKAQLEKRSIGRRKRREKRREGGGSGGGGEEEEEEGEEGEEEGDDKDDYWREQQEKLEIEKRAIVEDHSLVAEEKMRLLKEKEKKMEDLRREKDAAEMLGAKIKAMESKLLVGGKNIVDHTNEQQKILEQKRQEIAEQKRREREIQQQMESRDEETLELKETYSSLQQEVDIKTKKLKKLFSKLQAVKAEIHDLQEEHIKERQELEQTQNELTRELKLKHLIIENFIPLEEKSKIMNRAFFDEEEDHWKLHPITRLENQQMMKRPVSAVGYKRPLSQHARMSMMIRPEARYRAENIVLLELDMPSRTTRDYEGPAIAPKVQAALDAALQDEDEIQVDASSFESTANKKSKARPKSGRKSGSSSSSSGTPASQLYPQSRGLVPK
UniProt P23276: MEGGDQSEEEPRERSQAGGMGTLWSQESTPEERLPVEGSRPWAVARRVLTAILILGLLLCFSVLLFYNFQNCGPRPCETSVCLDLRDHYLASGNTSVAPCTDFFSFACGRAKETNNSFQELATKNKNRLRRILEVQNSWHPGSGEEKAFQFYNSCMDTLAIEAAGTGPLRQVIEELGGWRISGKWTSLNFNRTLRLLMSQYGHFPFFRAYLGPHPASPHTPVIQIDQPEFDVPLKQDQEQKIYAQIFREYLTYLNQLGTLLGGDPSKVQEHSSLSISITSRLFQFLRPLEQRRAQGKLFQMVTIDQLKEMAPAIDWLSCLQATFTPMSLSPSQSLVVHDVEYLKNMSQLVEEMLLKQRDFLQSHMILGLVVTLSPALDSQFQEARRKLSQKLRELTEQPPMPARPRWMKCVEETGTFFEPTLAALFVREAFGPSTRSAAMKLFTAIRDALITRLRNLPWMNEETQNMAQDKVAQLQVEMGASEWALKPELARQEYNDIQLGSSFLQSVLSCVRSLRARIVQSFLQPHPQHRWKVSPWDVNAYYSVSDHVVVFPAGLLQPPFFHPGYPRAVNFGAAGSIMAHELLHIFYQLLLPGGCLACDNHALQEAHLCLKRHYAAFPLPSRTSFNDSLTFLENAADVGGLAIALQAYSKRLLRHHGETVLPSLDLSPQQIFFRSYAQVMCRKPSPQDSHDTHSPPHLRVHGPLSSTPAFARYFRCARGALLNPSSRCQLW
UniProt Q12840: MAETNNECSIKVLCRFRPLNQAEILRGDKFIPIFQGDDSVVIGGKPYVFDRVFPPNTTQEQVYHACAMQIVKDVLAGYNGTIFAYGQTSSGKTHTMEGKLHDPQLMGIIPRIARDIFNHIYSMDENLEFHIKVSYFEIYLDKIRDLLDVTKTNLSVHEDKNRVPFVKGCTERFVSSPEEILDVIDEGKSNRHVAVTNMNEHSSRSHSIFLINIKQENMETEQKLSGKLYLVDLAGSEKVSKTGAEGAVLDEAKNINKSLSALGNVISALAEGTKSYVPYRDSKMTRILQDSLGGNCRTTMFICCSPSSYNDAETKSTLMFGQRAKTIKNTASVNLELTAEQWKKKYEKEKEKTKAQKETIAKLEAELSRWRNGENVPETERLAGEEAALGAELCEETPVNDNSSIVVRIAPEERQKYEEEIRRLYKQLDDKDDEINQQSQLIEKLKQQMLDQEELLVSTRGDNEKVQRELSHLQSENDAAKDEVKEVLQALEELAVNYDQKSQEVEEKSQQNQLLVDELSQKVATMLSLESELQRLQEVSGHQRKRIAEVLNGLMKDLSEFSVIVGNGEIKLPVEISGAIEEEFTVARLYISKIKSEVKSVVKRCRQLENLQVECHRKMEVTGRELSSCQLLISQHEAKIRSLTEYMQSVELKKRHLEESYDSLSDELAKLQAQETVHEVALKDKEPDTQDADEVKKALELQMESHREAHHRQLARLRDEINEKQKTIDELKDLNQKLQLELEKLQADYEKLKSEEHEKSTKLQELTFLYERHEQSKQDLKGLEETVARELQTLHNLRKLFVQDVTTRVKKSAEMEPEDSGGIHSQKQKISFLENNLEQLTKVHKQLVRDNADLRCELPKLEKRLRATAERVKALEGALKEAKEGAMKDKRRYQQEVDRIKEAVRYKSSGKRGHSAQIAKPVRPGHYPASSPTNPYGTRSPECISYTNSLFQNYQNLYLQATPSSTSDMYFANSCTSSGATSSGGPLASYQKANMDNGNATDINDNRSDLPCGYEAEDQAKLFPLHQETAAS
UniProt Q99661: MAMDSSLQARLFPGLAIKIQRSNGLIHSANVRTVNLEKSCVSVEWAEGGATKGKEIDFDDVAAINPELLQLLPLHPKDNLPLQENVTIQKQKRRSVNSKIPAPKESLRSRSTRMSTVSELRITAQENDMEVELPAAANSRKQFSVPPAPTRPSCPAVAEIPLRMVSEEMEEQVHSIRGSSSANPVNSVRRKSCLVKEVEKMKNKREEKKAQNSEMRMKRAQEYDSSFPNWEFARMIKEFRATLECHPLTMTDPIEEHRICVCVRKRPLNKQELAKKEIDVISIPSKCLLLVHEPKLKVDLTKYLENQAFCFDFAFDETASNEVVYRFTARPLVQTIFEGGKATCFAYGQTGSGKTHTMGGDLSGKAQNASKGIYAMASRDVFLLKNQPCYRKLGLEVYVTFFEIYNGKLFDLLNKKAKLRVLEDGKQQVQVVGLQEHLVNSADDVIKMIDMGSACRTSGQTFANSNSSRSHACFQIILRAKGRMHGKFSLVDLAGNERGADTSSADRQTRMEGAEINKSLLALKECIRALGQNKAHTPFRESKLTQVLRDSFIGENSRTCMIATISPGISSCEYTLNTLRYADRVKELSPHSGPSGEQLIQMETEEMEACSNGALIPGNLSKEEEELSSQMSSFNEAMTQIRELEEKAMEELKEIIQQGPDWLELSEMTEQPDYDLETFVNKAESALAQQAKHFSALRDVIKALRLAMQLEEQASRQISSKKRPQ
UniProt Q15046, whole entry, looked up: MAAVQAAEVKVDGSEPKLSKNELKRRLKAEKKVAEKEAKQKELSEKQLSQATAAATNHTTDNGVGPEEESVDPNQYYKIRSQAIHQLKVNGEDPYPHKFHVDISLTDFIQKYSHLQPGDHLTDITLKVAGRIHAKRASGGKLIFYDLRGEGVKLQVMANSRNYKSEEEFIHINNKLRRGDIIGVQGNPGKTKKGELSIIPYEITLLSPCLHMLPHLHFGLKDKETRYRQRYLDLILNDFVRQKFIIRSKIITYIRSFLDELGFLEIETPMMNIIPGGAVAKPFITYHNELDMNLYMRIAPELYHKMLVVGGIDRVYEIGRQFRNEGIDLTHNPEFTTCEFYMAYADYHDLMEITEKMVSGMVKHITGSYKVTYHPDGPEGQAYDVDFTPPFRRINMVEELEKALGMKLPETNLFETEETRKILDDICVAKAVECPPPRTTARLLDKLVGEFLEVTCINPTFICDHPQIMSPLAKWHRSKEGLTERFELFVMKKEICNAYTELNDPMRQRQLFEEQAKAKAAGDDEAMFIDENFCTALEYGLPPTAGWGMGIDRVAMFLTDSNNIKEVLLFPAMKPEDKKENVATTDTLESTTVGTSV
UniProt O00505, whole entry, looked up: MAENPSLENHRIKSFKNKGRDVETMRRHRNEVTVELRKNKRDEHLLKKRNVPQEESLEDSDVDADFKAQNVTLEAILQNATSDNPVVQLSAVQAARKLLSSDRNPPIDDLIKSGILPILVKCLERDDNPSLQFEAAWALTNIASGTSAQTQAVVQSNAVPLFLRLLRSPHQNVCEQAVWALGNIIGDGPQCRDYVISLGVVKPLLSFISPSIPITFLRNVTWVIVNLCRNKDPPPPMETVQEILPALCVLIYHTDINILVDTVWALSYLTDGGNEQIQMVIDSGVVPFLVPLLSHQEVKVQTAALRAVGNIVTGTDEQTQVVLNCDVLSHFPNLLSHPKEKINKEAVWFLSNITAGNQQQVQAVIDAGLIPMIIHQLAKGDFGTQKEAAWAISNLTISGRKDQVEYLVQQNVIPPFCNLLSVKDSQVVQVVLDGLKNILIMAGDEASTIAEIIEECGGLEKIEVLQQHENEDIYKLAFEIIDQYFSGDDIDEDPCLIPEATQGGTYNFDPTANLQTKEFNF
UniProt Q07866: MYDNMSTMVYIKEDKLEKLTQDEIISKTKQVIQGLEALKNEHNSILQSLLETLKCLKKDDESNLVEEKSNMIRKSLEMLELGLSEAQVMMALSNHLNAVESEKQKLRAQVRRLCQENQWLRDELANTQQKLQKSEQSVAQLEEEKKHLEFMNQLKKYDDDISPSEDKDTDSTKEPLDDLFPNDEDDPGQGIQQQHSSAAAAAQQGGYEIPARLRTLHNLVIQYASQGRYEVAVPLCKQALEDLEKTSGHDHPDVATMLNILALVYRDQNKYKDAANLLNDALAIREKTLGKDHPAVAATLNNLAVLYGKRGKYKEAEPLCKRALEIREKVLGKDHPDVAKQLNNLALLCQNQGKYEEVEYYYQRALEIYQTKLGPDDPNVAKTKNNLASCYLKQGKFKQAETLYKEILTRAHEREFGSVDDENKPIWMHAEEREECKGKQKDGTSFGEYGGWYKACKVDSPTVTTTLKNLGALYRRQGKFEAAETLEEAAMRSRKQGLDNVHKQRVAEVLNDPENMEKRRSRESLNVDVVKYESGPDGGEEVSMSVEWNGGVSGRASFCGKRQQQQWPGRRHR
UniProt Q96SI1: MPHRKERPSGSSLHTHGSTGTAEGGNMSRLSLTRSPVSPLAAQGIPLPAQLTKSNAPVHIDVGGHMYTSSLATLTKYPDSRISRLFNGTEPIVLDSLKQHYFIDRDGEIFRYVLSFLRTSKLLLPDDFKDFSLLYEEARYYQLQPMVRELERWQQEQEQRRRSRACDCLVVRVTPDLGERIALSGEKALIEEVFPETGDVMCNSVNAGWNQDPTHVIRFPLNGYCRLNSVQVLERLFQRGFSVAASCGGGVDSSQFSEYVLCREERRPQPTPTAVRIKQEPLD
UniProt Q8N371: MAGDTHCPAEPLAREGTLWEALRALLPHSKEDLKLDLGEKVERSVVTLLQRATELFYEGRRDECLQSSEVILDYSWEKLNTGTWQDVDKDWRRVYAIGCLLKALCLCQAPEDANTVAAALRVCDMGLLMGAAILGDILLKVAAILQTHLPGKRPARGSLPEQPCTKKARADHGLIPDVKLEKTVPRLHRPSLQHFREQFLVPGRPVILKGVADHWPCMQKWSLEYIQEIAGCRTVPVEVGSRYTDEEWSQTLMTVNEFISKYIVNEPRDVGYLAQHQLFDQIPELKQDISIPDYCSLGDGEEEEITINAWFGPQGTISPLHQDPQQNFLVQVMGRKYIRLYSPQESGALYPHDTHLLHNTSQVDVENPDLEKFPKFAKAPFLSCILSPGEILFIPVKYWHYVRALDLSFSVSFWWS

[2] = compound: CC1=C(C=C(C=C1)NC(=O)C2=CC(=CC=C2)N(C)C)NC(=O)C3=CC=C(C=C3)O
In short: as §1

[3] = compound: CC1=CC=C(C=C1)SC2=C3C=C(SC3=CN=C2)C(=O)N
In short: as §1

[4] = compound: CC1=NC(=CC=C1)C2=C(N=C(N2)C(C)(C)C)C3=CC4=NC=CN=C4C=C3
In short: as §1

Nexturastat A = compound: CCCCN(Cc1ccc(C(=O)NO)cc1)C(=O)Nc1ccccc1 [Nexturastat A]
In short: as §1

vemurafenib = compound: CCCS(=O)(=O)Nc1ccc(F)c(C(=O)c2c[nH]c3ncc(-c4ccc(Cl)cc4)cc23)c1F [vemurafenib]
In short: as §1

[5] = compound: CCCS(=O)(=O)Nc1ccc(F)c(C(=O)c2c[nH]c3ncc(Cl)cc23)c1F
In short: as §1

[6] = compound: CCCc1cc(C)[nH]c(=O)c1CNC(=O)c1cc(-c2ccnc(N3CCN(C)CC3)c2)cc2c1cnn2C(C)C
In short: as §1

givinostat = compound: CCN(CC)Cc1ccc2cc(COC(=O)Nc3ccc(C(=O)NO)cc3)ccc2c1 [givinostat]
In short: as §1

barasertib = compound: CCN(CCCOc1ccc2c(Nc3cc(CC(=O)Nc4cccc(F)c4)[nH]n3)ncnc2c1)CCOP(=O)(O)O [barasertib]
In short: as §1

Measured: log2 fold change

KDSR (UniProt Q06136)
inactive: [1] 0.015 | [2] -0.002 | [3] -0.006 | [4] 0.054 | Nexturastat A -0.065 | vemurafenib -0.008 | [5] 0.017 | [6] -0.025 | givinostat 0.015 | barasertib -0.031

KRAS isoform 2 (UniProt P01116)
inactive: [1] -0.034 | [2] 0.046 | [3] -0.023 | [4] -0.026 | Nexturastat A -0.063 | vemurafenib -0.03 | [5] -0.093 | [6] -0.073 | givinostat 0.014 | barasertib 0.003

KHSRP (UniProt Q92945)
inactive: [1] -0.01 | [2] -0.001 | [3] -0.005 | [4] 0.035 | Nexturastat A -0.093 | vemurafenib -0.015 | [5] -0.034 | [6] -0.029 | givinostat -0.015 | barasertib -0.009

KPNB1 (UniProt Q14974)
inactive: [1] 0.049 | [2] -0.041 | [3] 0 | [4] -0.015 | Nexturastat A 0.119 | vemurafenib 0.07 | [5] 0.076 | [6] 0.052 | givinostat 0.085 | barasertib 0.02

KIF1B isoform 4 (UniProt O60333)
inactive: [1] -0.07 | [2] 0.058 | [3] 0.008 | [4] 0.024 | Nexturastat A 0.024 | vemurafenib 0.002 | [5] 0.043 | [6] 0.018 | givinostat 0.122 | barasertib 0.073

KATNB1 (UniProt Q9BVA0)
inactive: [1] -0.034 | [2] 0.011 | [3] 0.08 | [4] 0.04 | Nexturastat A 0.02 | vemurafenib -0.015 | [5] 0.029 | [6] 0.042 | givinostat 0.017 | barasertib 0.002

KHDC4 (UniProt Q7Z7F0)
inactive: [1] -0.008 | [2] -0.055 | [3] 0.026 | [4] 0.071 | Nexturastat A 0.068 | vemurafenib 0.113 | [5] 0.017 | [6] 0.038 | givinostat 0.048 | barasertib 0.049

KIF3B (UniProt O15066)
inactive: [1] -0.082 | [2] 0.05 | [3] -0.022 | [4] -0.042 | Nexturastat A 0.097 | vemurafenib 0.018 | [5] 0.017 | [6] -0.019 | givinostat 0.067 | barasertib -0.062

KPNA6 (UniProt O60684)
inactive: [1] -0.06 | [2] -0.02 | [3] -0.014 | [4] -0.063 | Nexturastat A 0.156 | vemurafenib -0.09 | [5] 0.078 | [6] 0.068 | givinostat 0.018 | barasertib 0.047

KEL (UniProt P23276)
inactive: [1] -0.004 | [2] -0.061 | [3] 0.117 | [4] 0.01 | Nexturastat A 0.117 | vemurafenib -0.009 | [5] -0.015 | [6] -0.014 | givinostat -0.056 | barasertib -0.029

KIF5A (UniProt Q12840)
inactive: [1] -0.016 | [2] -0.019 | [3] -0.026 | [4] 0.001 | Nexturastat A -0.051 | vemurafenib 0.005 | [5] -0.007 | [6] -0.001 | givinostat 0.011 | barasertib 0.039

JMJD1C (UniProt Q15652)
inactive: [1] 0.022 | [2] 0.007 | [3] -0.036 | [4] 0.04 | Nexturastat A -0.007 | vemurafenib -0.012 | [5] 0.013 | [6] -0.03 | givinostat 0.082 | barasertib 0.055

KBTBD2 (UniProt Q8IY47)
inactive: [1] -0.031 | [2] -0.002 | [3] 0.006 | [4] 0.026 | Nexturastat A -0.117 | vemurafenib -0.021 | [5] 0.002 | [6] -0.006 | givinostat -0.044 | barasertib 0.082

KNTC1 (UniProt P50748)
inactive: [1] -0.027 | [2] -0.003 | [3] -0.021 | [4] 0.026 | Nexturastat A 0.034 | vemurafenib 0.042 | [5] 0.036 | [6] 0.092 | givinostat 0.082 | barasertib 0.035

KIF2C (UniProt Q99661)
inactive: [1] 0.012 | [2] -0.038 | [3] 0.057 | [4] 0.067 | Nexturastat A 0.02 | vemurafenib 0.087 | [5] 0.053 | [6] 0.03 | givinostat 0.016 | barasertib 0.053

KLF3 (UniProt P57682)
inactive: [1] -0.071 | [2] 0.148 | [3] -0.033 | [4] 0.013 | Nexturastat A -0.029 | vemurafenib -0.134 | [5] -0.033 | [6] 0 | givinostat 0.136 | barasertib 0.058

KCTD10 (UniProt Q9H3F6)
inactive: [1] -0.055 | [2] 0.022 | [3] -0.025 | [4] 0.017 | Nexturastat A 0.051 | vemurafenib -0.013 | [5] -0.029 | [6] 0.024 | givinostat 0.025 | barasertib 0.021

KDM2A (UniProt Q9Y2K7)
inactive: [1] -0.111 | [2] 0.029 | [3] -0.041 | [4] 0.069 | Nexturastat A -0.198 | vemurafenib 0.044 | [5] -0.014 | [6] -0.028 | givinostat 0.015 | barasertib 0.077

JMJD6 isoform 3 (UniProt Q6NYC1)
inactive: [1] 0.055 | [2] -0.085 | [3] 0.092 | [4] 0.024 | Nexturastat A -0.147 | vemurafenib 0.002 | [5] 0.049 | [6] 0.071 | givinostat -0.095 | barasertib -0.007

KDELR2 (UniProt P33947)
inactive: [1] 0.058 | [2] 0.099 | [3] 0.064 | [4] -0.094 | Nexturastat A -0.13 | vemurafenib -0.079 | [5] -0.054 | [6] -0.128 | givinostat -0.064 | barasertib 0.036

JPT1 (UniProt Q9UK76)
inactive: [1] 0.007 | [2] -0.013 | [3] -0.015 | [4] 0.029 | Nexturastat A 0.012 | vemurafenib 0.026 | [5] -0.039 | [6] -0.018 | givinostat -0.002 | barasertib 0.023

KARS1 (UniProt Q15046)
inactive: [1] -0.018 | [2] 0.011 | [3] -0.057 | [4] -0.092 | Nexturastat A 0.126 | vemurafenib -0.044 | [5] -0.039 | [6] 0.062 | givinostat -0.016 | barasertib -0.096

KPNA3 (UniProt O00505)
inactive: [1] 0.089 | [2] 0.003 | [3] 0.014 | [4] 0.031 | Nexturastat A -0.097 | vemurafenib 0.002 | [5] 0.039 | [6] -0.009 | givinostat 0.032 | barasertib -0.006

KMT2D isoform 3 (UniProt O14686)
inactive: [1] -0.102 | [2] -0.052 | [3] -0.066 | [4] -0.032 | Nexturastat A -0.124 | vemurafenib 0.009 | [5] 0.006 | [6] -0.052 | givinostat -0.143 | barasertib 0.072

IWS1 (UniProt Q96ST2)
inactive: [1] -0.083 | [2] 0.007 | [3] -0.015 | [4] -0.02 | Nexturastat A 0.029 | vemurafenib 0.046 | [5] -0.003 | [6] -0.017 | givinostat 0.051 | barasertib 0.002

KIFBP (UniProt Q96EK5)
inactive: [1] 0.019 | [2] 0.034 | [3] 0.052 | [4] 0.027 | Nexturastat A -0.107 | vemurafenib 0.067 | [5] 0.093 | [6] -0.013 | givinostat -0.004 | barasertib 0.022

KLC1 isoform 6 (UniProt Q07866)
inactive: [1] 0.024 | [2] -0.009 | [3] 0.008 | [4] 0.029 | Nexturastat A -0.068 | vemurafenib 0.014 | [5] 0.026 | [6] 0 | givinostat -0.003 | barasertib 0.03

KCTD15 (UniProt Q96SI1)
inactive: [1] -0.093 | [2] 0.084 | [3] -0.014 | [4] -0.054 | Nexturastat A -0.081 | vemurafenib -0.031 | [5] -0.033 | [6] -0.041 | givinostat -0.031 | barasertib 0.038

KDM8 isoform 3 (UniProt Q8N371)
inactive: [1] -0.013 | [2] 0.005 | [3] 0.017 | [4] 0.05 | Nexturastat A -0.04 | vemurafenib -0.007 | [5] 0.014 | [6] -0.149 | givinostat 0 | barasertib 0.013

Fetched one by one from the entries so far, two records:
KIFBP (UniProt Q96EK5)
inactive: [1] 0.019 | [2] 0.034 | [3] 0.052 | [4] 0.027 | Nexturastat A -0.107 | vemurafenib 0.067 | [5] 0.093 | [6] -0.013 | givinostat -0.004 | barasertib 0.022

KDM8 isoform 3 (UniProt Q8N371)
inactive: [1] -0.013 | [2] 0.005 | [3] 0.017 | [4] 0.05 | Nexturastat A -0.04 | vemurafenib -0.007 | [5] 0.014 | [6] -0.149 | givinostat 0 | barasertib 0.013

From the supplement of paper PMC10849652
